From the supplement of paper PMC10849652
Some of the results follow.

Sequences of proteins named here, by UniProt entry; tags and fusion partners are left off. A change or cut given only in a name is not applied to a line headed by its entry.
UniProt Q8N6T7, whole entry, looked up: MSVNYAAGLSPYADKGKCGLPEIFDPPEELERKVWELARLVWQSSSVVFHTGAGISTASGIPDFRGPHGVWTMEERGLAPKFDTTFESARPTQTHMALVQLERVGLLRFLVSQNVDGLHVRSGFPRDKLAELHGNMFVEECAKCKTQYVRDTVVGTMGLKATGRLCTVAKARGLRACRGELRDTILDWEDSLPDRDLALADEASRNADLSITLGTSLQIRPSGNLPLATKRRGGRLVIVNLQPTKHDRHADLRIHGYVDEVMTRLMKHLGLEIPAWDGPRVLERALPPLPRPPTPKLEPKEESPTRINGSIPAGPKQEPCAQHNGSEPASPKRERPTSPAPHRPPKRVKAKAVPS
UniProt Q96NB2: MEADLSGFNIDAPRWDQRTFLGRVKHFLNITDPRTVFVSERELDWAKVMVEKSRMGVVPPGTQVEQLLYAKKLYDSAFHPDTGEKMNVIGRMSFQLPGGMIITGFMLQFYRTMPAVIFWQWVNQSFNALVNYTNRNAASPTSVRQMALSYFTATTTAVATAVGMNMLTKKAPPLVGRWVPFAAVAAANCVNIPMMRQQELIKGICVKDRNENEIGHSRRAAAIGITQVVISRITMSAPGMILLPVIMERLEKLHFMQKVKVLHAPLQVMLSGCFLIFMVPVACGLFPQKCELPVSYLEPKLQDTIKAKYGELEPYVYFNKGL
UniProt P49903: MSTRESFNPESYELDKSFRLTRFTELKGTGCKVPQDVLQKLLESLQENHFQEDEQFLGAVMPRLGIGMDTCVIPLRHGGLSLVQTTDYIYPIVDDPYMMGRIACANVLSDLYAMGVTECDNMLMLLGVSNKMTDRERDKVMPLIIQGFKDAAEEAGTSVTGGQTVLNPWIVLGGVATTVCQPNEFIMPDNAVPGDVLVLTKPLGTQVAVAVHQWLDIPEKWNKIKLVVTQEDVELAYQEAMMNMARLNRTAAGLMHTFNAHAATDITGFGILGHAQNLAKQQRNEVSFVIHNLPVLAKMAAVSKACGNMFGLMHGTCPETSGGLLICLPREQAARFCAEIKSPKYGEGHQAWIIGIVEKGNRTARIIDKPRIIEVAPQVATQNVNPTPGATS
UniProt Q9UGP8: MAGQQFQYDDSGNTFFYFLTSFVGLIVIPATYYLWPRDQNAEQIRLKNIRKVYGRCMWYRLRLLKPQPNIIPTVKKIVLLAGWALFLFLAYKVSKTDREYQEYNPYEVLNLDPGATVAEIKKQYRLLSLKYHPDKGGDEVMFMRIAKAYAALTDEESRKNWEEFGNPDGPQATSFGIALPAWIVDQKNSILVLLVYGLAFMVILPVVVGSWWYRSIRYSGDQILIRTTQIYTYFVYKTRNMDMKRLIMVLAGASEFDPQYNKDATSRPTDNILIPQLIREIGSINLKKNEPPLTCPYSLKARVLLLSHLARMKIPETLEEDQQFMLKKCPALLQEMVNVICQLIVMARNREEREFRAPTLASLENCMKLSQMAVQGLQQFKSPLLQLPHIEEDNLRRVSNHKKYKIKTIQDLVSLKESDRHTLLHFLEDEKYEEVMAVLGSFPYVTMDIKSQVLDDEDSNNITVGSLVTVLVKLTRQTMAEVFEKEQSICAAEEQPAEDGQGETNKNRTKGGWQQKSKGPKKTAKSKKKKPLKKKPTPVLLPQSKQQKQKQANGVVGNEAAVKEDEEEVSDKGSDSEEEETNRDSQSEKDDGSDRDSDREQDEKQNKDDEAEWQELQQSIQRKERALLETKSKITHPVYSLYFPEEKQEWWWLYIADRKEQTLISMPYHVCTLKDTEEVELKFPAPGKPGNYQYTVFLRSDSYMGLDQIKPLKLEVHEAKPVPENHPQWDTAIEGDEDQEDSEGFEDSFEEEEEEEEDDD
UniProt Q9H299: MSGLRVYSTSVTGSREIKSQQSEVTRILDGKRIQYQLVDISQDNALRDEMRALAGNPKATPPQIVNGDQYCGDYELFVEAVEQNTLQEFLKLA
UniProt P34896: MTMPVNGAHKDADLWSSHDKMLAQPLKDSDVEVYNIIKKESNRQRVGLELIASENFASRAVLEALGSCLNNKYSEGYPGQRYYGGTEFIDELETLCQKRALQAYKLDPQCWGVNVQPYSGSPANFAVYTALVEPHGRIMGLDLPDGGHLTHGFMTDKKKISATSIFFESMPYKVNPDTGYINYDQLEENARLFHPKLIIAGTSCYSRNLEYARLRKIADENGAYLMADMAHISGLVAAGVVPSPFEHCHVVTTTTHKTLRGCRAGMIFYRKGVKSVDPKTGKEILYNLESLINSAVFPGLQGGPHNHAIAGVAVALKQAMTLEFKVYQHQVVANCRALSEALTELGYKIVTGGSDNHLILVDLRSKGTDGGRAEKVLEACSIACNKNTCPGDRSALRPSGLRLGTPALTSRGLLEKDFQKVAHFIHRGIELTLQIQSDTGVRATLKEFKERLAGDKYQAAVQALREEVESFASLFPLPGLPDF
UniProt Q8IX90, whole entry, looked up: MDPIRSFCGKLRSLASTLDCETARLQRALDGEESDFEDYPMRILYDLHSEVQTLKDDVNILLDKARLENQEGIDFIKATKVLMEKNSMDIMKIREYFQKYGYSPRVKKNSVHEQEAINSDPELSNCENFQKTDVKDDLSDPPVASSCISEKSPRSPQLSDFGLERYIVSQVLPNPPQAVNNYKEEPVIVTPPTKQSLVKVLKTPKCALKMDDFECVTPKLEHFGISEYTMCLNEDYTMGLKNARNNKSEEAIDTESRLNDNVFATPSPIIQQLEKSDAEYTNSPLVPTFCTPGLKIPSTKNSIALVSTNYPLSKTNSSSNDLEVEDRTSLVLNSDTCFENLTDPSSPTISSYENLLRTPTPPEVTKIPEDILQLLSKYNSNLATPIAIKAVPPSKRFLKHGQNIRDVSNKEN
UniProt Q9UHD8: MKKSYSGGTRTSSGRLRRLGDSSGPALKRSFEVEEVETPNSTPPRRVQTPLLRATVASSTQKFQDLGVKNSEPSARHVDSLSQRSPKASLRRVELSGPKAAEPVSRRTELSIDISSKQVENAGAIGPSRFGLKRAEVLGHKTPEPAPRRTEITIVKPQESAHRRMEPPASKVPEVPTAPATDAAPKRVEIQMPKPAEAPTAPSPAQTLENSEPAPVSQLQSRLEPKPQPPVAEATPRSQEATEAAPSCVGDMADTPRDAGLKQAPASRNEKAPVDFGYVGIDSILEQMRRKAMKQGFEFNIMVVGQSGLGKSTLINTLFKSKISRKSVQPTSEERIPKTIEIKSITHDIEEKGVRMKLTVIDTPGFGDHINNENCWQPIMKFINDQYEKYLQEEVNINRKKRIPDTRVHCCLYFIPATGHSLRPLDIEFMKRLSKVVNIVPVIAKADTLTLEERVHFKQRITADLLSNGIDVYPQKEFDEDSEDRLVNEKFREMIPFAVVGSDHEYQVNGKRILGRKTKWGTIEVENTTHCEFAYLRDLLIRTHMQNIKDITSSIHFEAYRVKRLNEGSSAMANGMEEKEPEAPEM
UniProt Q9UJC5: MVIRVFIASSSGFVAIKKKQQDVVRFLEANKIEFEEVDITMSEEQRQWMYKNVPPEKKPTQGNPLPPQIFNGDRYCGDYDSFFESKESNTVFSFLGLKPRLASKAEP
UniProt Q15637: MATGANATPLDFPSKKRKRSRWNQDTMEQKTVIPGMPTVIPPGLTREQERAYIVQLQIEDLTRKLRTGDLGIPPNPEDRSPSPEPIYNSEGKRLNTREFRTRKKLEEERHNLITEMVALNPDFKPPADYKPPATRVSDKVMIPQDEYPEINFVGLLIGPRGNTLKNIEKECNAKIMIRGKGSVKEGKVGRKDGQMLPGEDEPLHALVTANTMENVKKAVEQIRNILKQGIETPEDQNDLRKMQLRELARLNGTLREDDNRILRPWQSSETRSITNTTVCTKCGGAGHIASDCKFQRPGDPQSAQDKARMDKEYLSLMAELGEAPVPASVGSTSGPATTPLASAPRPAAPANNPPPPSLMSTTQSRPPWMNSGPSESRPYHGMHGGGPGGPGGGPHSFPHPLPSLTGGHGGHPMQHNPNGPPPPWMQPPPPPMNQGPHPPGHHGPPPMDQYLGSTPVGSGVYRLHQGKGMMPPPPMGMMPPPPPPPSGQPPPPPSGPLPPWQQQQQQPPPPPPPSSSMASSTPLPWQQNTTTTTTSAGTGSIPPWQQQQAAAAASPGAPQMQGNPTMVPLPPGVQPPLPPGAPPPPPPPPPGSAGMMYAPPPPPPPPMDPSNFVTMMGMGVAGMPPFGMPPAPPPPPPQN
UniProt Q13228: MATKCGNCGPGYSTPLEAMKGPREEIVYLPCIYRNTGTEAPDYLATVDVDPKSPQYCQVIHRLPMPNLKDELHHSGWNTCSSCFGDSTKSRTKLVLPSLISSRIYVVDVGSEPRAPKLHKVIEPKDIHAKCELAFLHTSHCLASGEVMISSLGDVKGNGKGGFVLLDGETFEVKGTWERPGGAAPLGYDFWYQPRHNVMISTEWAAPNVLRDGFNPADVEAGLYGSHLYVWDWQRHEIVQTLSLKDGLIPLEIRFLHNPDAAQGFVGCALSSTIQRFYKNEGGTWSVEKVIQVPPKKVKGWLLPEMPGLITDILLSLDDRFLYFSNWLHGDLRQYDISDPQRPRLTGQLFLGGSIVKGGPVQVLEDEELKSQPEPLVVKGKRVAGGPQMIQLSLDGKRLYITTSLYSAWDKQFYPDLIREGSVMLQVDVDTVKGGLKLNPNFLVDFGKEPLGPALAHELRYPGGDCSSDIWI
UniProt Q587I9: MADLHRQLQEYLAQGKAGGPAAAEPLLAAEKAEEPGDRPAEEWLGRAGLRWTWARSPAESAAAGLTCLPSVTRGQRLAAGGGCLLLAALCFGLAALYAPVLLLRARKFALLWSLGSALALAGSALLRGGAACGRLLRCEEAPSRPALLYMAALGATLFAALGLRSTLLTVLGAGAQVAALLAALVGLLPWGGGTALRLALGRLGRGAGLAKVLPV
UniProt Q99611, whole entry, looked up: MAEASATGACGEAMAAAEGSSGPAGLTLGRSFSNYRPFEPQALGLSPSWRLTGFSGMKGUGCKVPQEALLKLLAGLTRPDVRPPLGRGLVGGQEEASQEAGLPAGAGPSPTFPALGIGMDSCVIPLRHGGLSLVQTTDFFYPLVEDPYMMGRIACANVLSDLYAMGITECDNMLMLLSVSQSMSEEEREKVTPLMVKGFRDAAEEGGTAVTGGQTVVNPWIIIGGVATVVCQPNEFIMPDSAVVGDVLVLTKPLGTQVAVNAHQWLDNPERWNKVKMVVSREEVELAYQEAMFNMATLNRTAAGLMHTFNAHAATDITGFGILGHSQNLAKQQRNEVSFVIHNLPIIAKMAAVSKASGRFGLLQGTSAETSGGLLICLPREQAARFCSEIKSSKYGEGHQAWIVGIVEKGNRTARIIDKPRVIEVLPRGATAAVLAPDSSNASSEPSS
UniProt O43765: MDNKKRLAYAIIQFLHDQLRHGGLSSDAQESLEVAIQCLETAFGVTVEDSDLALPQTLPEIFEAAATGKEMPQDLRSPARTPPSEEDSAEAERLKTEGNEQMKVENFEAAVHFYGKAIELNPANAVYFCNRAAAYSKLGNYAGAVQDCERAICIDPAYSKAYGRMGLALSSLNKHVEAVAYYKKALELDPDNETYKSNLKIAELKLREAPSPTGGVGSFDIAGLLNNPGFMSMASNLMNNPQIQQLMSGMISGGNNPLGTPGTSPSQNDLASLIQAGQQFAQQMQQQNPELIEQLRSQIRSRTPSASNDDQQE
UniProt Q01105, whole entry, looked up: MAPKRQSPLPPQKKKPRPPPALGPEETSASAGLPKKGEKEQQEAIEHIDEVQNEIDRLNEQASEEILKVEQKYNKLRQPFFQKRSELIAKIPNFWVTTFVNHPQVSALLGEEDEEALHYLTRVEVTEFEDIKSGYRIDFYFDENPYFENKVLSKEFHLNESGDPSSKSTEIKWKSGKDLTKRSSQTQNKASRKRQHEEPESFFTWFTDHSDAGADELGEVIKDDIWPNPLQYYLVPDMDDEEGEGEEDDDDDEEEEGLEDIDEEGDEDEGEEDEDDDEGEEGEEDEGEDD

Experiments:
Experiment in all cases: log2 fold change, soluble protein after heating vs DMSO (PISA); higher = thermal stabilisation; K562 cells, 10 uM, 30 min; active = over 0.2 and 3.5 SD of the protein, either way, in both replicates (recomputed)
[1] = compound: CC1=C(C=C(C=C1)NC(=O)C2=CC(=CC=C2)C(C)(C)C#N)NC3=CC4=C(C=C3)N=CN(C4=O)C
Summary of the method: (§1)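 Values are thermal stability changes relative to control samples and are taken from duplicates. They are stated as log2 fold changes. Before quantification by TMTpro 16plex LC-MS/MS with equalised channel sums, K562 cells at 2×10^6 cells/mL were treated with 10 μM compound for 30 min, heated in aliquots for 3 min across 48°C-58°C, pooled, extracted in PBS with 0.5% NP-40 at 4°C, and centrifuged at 21,000xg for 90 min to give the soluble supernatant.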

[2] = compound: CC1=C(C=C(C=C1)NC(=O)C2=CC(=CC=C2)N(C)C)NC(=O)C3=CC=C(C=C3)O
Summary of the method: as §1

[3] = compound: CC1=CC=C(C=C1)SC2=C3C=C(SC3=CN=C2)C(=O)N
Summary of the method: as §1

[4] = compound: CC1=NC(=CC=C1)C2=C(N=C(N2)C(C)(C)C)C3=CC4=NC=CN=C4C=C3
Summary of the method: as §1

[5] = compound: CCCCN(Cc1ccc(C(=O)NO)cc1)C(=O)Nc1ccccc1 [Nexturastat A]
Summary of the method: as §1

[6] = compound: CCCS(=O)(=O)Nc1ccc(F)c(C(=O)c2c[nH]c3ncc(-c4ccc(Cl)cc4)cc23)c1F [vemurafenib]
Summary of the method: as §1

[7] = compound: CCCS(=O)(=O)Nc1ccc(F)c(C(=O)c2c[nH]c3ncc(Cl)cc23)c1F
Summary of the method: as §1

[8] = compound: CCCc1cc(C)[nH]c(=O)c1CNC(=O)c1cc(-c2ccnc(N3CCN(C)CC3)c2)cc2c1cnn2C(C)C
Summary of the method: as §1

[9] = compound: CCN(CC)Cc1ccc2cc(COC(=O)Nc3ccc(C(=O)NO)cc3)ccc2c1 [givinostat]
Summary of the method: as §1

[10] = compound: CCN(CCCOc1ccc2c(Nc3cc(CC(=O)Nc4cccc(F)c4)[nH]n3)ncnc2c1)CCOP(=O)(O)O [barasertib]
Summary of the method: as §1

[11] = compound: CC[C@@H]1C(=O)N(C)c2cnc(Nc3ccc(C(=O)NC4CCN(C)CC4)cc3OC)nc2N1C1CCCC1
Summary of the method: as §1

[12] = compound: CC[C@@H]1C(=O)N(C)c2cnc(Nc3ccc(C(=O)N[C@H]4CC[C@H](N5CCN(CC6CC6)CC5)CC4)cc3OC)nc2N1C(C)C [volasertib]
Summary of the method: as §1

[13] = compound: CC[C@H](C)N1C=C(C2=C(C=C(C=C21)C3=CN=C(C=C3)N4CCNCC4)C(=O)NCC5=C(C=C(NC5=O)C)C)C
Summary of the method: as §1

[14] = compound: CC[C@H](C)[C@@H](C(=O)N[C@@H]([C@@H](C)O)C(=O)N[C@@H](CC(C)C)C(=O)[C@]1(CO1)C)NC(=O)[C@H]([C@@H](C)CC)N(C)C(=O)C [epoxomicin]
Summary of the method: as §1

[15] = compound: CCn1c(C(=O)N(C2CC2)C2CC2)cc2c3c(ncn3C)c(Nc3cc(C)n(C)n3)nc21
Summary of the method: as §1

[16] = compound: CCn1cc(-c2ccnc3[nH]c(-c4cccc(CN(C)C)c4)cc23)c(-c2ccc(NC(=O)N(C)C)cc2)n1
Summary of the method: as §1

[17] = compound: CN(C)CC(=O)Nc1ccc2[nH]c(=O)c3ccccc3c2c1
Summary of the method: as §1

[18] = compound: CN(CCOC1=CC=C(C=C1)C[C@H]2C(=O)NC(=O)S2)C3=CC=CC=N3 (racemic) [rosiglitazone]
Summary of the method: as §1

[19] = compound: CN1C2=C(C3=C1C(=O)N(N=C3)CC4=CC(=CC=C4)N)SC(=C2)S(=O)C
Summary of the method: as §1

[20] = compound: CN1CCC(CNc2ccc3ncc(-c4cccc(OC(F)(F)F)c4)n3n2)CC1
Summary of the method: as §1

Measured: log2 fold change

SIRT6 (UniProt Q8N6T7)
inactive: [1] 0.053 | [2] -0.018 | [3] 0.095 | [4] 0.105 | [5] -0.087 | [6] 0.074 | [7] 0.09 | [8] 0.084 | [9] 0.134 | [10] 0.098 | [11] -0.236 | [12] 0.001 | [13] -0.231 | [14] -0.004 | [15] -0.022 | [16] -0.082 | [17] 0.076 | [18] 0.167 | [19] 0.077 | [20] 0.021

SFXN2 (UniProt Q96NB2)
inactive: [1] -0.012 | [2] 0.016 | [3] 0.064 | [4] 0.062 | [5] -0.007 | [6] 0.011 | [7] 0.028 | [8] -0.019 | [9] -0.034 | [10] -0.012 | [11] -0.005 | [12] -0.016 | [13] 0.015 | [14] 0.006 | [15] -0.031 | [16] -0.003 | [17] 0.069 | [18] -0.063 | [19] -0.107 | [20] -0.088

SEPHS1 (UniProt P49903)
inactive: [1] 0.067 | [2] 0.02 | [3] 0.065 | [4] 0.017 | [5] -0.056 | [6] 0.009 | [7] 0.02 | [8] -0.016 | [9] 0.018 | [10] -0.016 | [11] 0.029 | [12] 0.041 | [13] -0.026 | [14] 0.022 | [15] 0.016 | [16] 0.004 | [17] 0.021 | [18] -0.003 | [19] -0.071 | [20] -0.006

SEC63 (UniProt Q9UGP8)
inactive: [1] -0.013 | [2] 0.024 | [3] 0.005 | [4] 0.024 | [5] -0.044 | [6] 0.002 | [7] 0.012 | [8] -0.006 | [9] 0.009 | [10] -0.014 | [11] 0.051 | [12] 0.049 | [13] 0.017 | [14] -0.007 | [15] -0.024 | [16] -0.038 | [17] -0.018 | [18] 0.027 | [19] -0.064 | [20] 0.107

3 consecutive records out of the list so far, for reference:
SFXN2 (UniProt Q96NB2)
inactive: [1] -0.012 | [2] 0.016 | [3] 0.064 | [4] 0.062 | [5] -0.007 | [6] 0.011 | [7] 0.028 | [8] -0.019 | [9] -0.034 | [10] -0.012 | [11] -0.005 | [12] -0.016 | [13] 0.015 | [14] 0.006 | [15] -0.031 | [16] -0.003 | [17] 0.069 | [18] -0.063 | [19] -0.107 | [20] -0.088

SEPHS1 (UniProt P49903)
inactive: [1] 0.067 | [2] 0.02 | [3] 0.065 | [4] 0.017 | [5] -0.056 | [6] 0.009 | [7] 0.02 | [8] -0.016 | [9] 0.018 | [10] -0.016 | [11] 0.029 | [12] 0.041 | [13] -0.026 | [14] 0.022 | [15] 0.016 | [16] 0.004 | [17] 0.021 | [18] -0.003 | [19] -0.071 | [20] -0.006

SEC63 (UniProt Q9UGP8)
inactive: [1] -0.013 | [2] 0.024 | [3] 0.005 | [4] 0.024 | [5] -0.044 | [6] 0.002 | [7] 0.012 | [8] -0.006 | [9] 0.009 | [10] -0.014 | [11] 0.051 | [12] 0.049 | [13] 0.017 | [14] -0.007 | [15] -0.024 | [16] -0.038 | [17] -0.018 | [18] 0.027 | [19] -0.064 | [20] 0.107

The list goes on:

SH3BGRL3 (UniProt Q9H299)
inactive: [1] -0.032 | [2] -0.173 | [3] 0.08 | [4] -0.015 | [5] -0.043 | [6] -0.037 | [7] 0.196 | [8] -0.06 | [9] 0.011 | [10] 0.033 | [11] -0.004 | [12] 0 | [13] -0.034 | [14] 0.018 | [15] 0.013 | [16] 0.007 | [17] -0.023 | [18] 0.016 | [19] -0.047 | [20] -0.048

SHMT1 (UniProt P34896)
inactive: [1] 0.028 | [2] -0.001 | [3] 0.034 | [4] -0.02 | [5] -0.108 | [6] -0.007 | [7] -0.001 | [8] -0.052 | [9] -0.019 | [10] -0.009 | [11] 0.056 | [12] 0.016 | [13] -0.026 | [14] -0.024 | [15] 0.018 | [16] -0.016 | [17] -0.018 | [18] -0.002 | [19] -0.034 | [20] -0.051

SKA3 (UniProt Q8IX90)
inactive: [1] 0.021 | [2] 0.057 | [3] -0.072 | [4] 0.001 | [5] 0.262 | [6] 0.02 | [7] 0.041 | [8] 0.02 | [9] 0.039 | [10] 0.051 | [11] 0.045 | [12] -0.014 | [13] 0.039 | [14] -0.108 | [15] -0.094 | [16] -0.034 | [17] -0.139 | [18] 0 | [19] 0.239 | [20] 0.122

SEPTIN9 (UniProt Q9UHD8)
inactive: [1] 0.007 | [2] -0.021 | [3] 0 | [4] -0.024 | [5] -0.043 | [6] 0.009 | [7] -0.018 | [8] -0.06 | [9] 0.01 | [10] 0.033 | [11] -0.001 | [12] 0.011 | [13] 0.011 | [14] 0.043 | [15] -0.021 | [16] -0.008 | [17] 0.021 | [18] 0.044 | [19] -0.045 | [20] -0.016

SH3BGRL2 (UniProt Q9UJC5)
inactive: [1] -0.037 | [2] -0.007 | [3] -0.023 | [4] -0.047 | [5] 0.019 | [6] 0.032 | [7] 0.044 | [8] -0.024 | [9] 0.018 | [10] 0.042 | [11] 0.084 | [12] -0.018 | [13] 0.066 | [14] -0.01 | [15] 0.025 | [16] -0.059 | [17] 0.076 | [18] -0.026 | [19] -0.131 | [20] 0.007

SERPINB6, A0A087X1N8
inactive: [1] -0.033 | [2] -0.003 | [3] -0.005 | [4] 0.052 | [5] -0.009 | [6] 0.037 | [7] 0.003 | [8] 0.017 | [9] -0.063 | [10] -0.017 | [11] -0.012 | [12] 0.048 | [13] 0.007 | [14] 0.042 | [15] -0.015 | [16] -0.016 | [17] -0.027 | [18] -0.002 | [19] -0.05 | [20] -0.009

SF1 isoform 5 (UniProt Q15637)
inactive: [1] -0.015 | [2] -0.006 | [3] 0.022 | [4] 0 | [5] 0.005 | [6] -0.01 | [7] -0.016 | [8] -0.016 | [9] -0.01 | [10] 0.011 | [11] 0.016 | [12] 0.002 | [13] -0.003 | [14] -0.005 | [15] -0.005 | [16] 0.029 | [17] 0.001 | [18] -0.011 | [19] -0.01 | [20] -0.025

SELENBP1 isoform 4 (UniProt Q13228)
inactive: [1] 0.029 | [2] -0.009 | [3] 0.022 | [4] 0.063 | [5] -0.024 | [6] 0.03 | [7] -0.015 | [8] 0 | [9] -0.062 | [10] 0.003 | [11] -0.026 | [12] 0.048 | [13] -0.006 | [14] 0.041 | [15] -0.035 | [16] 0.006 | [17] -0.005 | [18] -0.014 | [19] -0.014 | [20] -0.04

SFT2D3 (UniProt Q587I9)
inactive: [1] 0.027 | [2] -0.011 | [3] -0.047 | [4] 0.025 | [5] 0.047 | [6] -0.014 | [7] -0.203 | [8] -0.064 | [9] -0.038 | [10] 0.253 | [11] 0.018 | [12] 0.063 | [13] -0.041 | [14] 0.003 | [15] 0.014 | [16] 0.106 | [17] 0.052 | [18] 0.238 | [19] -0.096 | [20] 0.193

SEPHS2 (UniProt Q99611)
inactive: [1] 0.044 | [2] 0.043 | [3] 0.084 | [4] 0.03 | [5] -0.032 | [6] 0.069 | [7] 0.044 | [8] -0.049 | [9] 0.035 | [10] -0.053 | [11] 0.043 | [12] 0.023 | [13] -0.034 | [14] 0.026 | [15] 0.024 | [16] -0.029 | [17] 0.03 | [18] -0.002 | [19] -0.038 | [20] 0.153

SGTA (UniProt O43765)
inactive: [1] 0.008 | [2] -0.051 | [3] 0.028 | [4] 0.044 | [5] -0.043 | [6] 0.018 | [7] 0.059 | [8] -0.031 | [9] 0.016 | [10] 0.048 | [11] -0.05 | [12] -0.159 | [13] 0.053 | [14] 0.063 | [15] 0 | [16] -0.015 | [17] 0.015 | [18] 0.027 | [19] -0.055 | [20] -0.082

SET isoform 2 (UniProt Q01105)
inactive: [1] 0.041 | [2] 0.028 | [3] 0.003 | [4] 0.039 | [5] -0.059 | [6] 0.032 | [7] -0.02 | [8] -0.027 | [9] -0.022 | [10] 0.035 | [11] -0.023 | [12] 0.083 | [13] -0.015 | [14] -0.038 | [15] 0.015 | [16] 0 | [17] -0.002 | [18] -0.008 | [19] -0.077 | [20] -0.012
